From paper PMC10981675, “Structural basis for phage-mediated activation and repression of bacterial DSR2 anti-phage defense system” (Nature Communications, 2024)
No constants are given. Whether binding was seen depends on the method and setting. Some binding calls cover weakened binding; strength is not graded here.

Columns and labels:
[1] = biological target: T1, DSR2 (Y71A, D188A) double mutant (Bacillus subtilis) (UniProt P0DXN8); experiment: tandem affinity co-purification + SEC; His-DSR2 and GST-tube made in E. coli; for wild type the cells expressing each were mixed before lysis; Ni-NTA, then glutathione resin, GST removed with HRV 3C, HiTrap Q, Superdex 200 Increase; mutants purified by the same method
T1 sequence: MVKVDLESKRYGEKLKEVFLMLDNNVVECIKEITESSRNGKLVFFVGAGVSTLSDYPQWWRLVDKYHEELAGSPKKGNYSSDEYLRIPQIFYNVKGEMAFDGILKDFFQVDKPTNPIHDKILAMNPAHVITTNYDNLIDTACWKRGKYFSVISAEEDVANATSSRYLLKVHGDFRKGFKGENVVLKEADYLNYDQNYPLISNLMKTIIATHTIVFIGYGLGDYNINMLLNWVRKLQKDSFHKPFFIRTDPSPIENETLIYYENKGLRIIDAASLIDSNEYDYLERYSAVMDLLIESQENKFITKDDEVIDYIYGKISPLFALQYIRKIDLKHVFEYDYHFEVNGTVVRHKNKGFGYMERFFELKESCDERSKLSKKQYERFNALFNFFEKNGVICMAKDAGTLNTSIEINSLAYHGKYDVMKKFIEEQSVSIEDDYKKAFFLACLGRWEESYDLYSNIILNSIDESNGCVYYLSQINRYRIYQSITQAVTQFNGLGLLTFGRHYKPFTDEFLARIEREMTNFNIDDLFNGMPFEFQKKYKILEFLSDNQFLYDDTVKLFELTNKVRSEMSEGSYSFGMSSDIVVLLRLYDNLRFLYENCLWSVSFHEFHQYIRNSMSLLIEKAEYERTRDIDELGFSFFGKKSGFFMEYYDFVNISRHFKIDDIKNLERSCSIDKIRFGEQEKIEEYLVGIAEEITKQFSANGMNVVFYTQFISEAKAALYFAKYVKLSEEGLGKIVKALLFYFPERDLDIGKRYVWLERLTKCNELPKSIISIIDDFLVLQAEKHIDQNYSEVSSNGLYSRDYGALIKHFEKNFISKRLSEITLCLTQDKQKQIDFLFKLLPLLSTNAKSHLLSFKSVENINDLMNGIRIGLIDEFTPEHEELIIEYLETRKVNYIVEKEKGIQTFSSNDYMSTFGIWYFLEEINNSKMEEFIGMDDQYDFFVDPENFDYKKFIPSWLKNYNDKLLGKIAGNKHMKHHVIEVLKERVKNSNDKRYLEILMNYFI

[2] = biological target: T2, DSR2 T248A (Bacillus subtilis) (UniProt P0DXN8); experiment: as above
T2 sequence: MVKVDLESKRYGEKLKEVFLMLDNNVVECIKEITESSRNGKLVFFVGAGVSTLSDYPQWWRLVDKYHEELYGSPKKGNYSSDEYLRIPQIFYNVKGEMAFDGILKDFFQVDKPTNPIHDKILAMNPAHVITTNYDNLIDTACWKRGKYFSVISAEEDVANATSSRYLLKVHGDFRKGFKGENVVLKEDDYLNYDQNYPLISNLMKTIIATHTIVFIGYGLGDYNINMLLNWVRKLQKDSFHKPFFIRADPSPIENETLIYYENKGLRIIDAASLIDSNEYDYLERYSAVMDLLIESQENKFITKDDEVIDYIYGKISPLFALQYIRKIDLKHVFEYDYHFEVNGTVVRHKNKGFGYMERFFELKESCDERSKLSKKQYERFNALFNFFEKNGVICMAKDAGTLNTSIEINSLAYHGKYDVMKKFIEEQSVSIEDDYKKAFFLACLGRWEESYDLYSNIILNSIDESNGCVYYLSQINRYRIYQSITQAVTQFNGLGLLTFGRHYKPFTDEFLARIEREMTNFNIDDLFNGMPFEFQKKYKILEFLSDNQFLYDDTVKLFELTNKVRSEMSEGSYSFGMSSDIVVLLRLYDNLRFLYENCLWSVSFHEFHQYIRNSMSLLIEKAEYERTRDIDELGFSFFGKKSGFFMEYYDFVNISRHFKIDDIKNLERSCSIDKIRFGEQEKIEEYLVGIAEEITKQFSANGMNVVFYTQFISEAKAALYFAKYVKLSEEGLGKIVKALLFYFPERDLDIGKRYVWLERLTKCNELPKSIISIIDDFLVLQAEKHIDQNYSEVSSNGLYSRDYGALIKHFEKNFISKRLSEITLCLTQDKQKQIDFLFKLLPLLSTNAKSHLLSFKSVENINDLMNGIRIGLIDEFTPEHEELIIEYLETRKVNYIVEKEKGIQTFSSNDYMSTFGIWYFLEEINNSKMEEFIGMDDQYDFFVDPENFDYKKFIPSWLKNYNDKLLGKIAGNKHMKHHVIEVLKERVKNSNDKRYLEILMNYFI

B1: tail tube protein of phage SPR, wild type (natural protein)
chain: MKTVIQDTADVYFKRKSDGKLVFTAEAQTASFSQAISEEKLRGGIGNKPLYILKSEKEINLTVKNAFFDLEWLAMTQGETIQEETKVKVFDREHGLIVDDTNKVTLKGKPVSDVTFYNKKGLTYKIAVSTDGTYTIPTAFAAAKDKLTAVYQIEKVGRRLAIKASKFSERYEVEYRTIAYNPDTEEVYSDIYIQFPNVSPSGEFEMSLENGNALAPEIKFEALADTDTDEMAVVIEASRDENTAAPVEDTTGSTQSSDLGGTTE
notes: tail tube protein of Bacillus phage SPR; domains D1 and D2; GST removal with HRV 3C is told for the DSR2-tube complex; Alone it runs as monomeric and oligomeric species on SEC; Only D1 is seen in the maps; also called phage tail tube protein; source: E. coli BL21 Star (DE3); purified alone, or co-purified with DSR2 (Ni-NTA, glutathione resin, HRV 3C cleavage, HiTrap Q, Superdex 200); not shown: …
- binding [1]: binds
- binding [2]: binds
